According to publication PMC9115032:
Results are given in words; binding and its absence hold for the method and conditions named. In cells and extracts the contact can be indirect. Some results given as binding are weak or reduced against the parent protein; the word gives no strength.

Protein sequences, listed by entry. Tags and fused reporters are not part of them. Residues count along the entry.
UniProt Q9NZQ7, residues 19-290: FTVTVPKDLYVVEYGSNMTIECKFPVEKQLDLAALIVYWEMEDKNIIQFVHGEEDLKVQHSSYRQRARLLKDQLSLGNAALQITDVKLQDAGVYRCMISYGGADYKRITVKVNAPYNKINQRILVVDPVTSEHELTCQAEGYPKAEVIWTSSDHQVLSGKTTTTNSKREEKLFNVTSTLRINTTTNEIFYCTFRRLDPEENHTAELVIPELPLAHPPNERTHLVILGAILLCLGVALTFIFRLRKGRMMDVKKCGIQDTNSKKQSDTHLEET
UniProt Q9NRR5: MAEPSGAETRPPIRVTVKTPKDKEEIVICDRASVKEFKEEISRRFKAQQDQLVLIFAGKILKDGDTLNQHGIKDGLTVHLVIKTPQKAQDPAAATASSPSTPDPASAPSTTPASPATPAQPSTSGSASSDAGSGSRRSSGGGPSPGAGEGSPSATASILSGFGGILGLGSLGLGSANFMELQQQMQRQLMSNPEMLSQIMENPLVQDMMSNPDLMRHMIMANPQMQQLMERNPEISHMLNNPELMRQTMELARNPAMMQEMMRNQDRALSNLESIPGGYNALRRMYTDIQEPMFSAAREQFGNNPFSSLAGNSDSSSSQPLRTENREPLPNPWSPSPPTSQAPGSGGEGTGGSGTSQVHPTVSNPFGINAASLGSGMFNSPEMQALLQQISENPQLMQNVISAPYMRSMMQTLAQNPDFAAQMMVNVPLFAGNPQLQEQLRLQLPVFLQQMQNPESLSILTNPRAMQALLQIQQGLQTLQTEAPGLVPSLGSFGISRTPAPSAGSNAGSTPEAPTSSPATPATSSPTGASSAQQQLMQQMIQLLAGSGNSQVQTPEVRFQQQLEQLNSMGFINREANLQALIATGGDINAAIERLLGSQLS

Target: PD-L1 (human (endogenous in A375)) (UniProt Q9NZQ7)
Assay: co-IP; endogenous co-IP from A375 lysate with control IgG, anti-PD-L1 or anti-UBQLN4 antibody, protein A/G agarose beads, washed with PBST (PBS pH 7.4, 0.1% Triton X-100)

- binding: binds
Substance: UBQLN4 (from UniProt Q9NRR5 1-601)
